Source: doi:10.1101/2020.02.02.931204
These are yes or no findings as the source states them, for the method shown. In cells and extracts the contact can be indirect. A result given as binding can be weak or reduced; the word gives no strength. Sequences can lack the tags named with a protein.

Biological target: T1, HA-SFPQ (human) (UniProt P23246)
T1 sequence: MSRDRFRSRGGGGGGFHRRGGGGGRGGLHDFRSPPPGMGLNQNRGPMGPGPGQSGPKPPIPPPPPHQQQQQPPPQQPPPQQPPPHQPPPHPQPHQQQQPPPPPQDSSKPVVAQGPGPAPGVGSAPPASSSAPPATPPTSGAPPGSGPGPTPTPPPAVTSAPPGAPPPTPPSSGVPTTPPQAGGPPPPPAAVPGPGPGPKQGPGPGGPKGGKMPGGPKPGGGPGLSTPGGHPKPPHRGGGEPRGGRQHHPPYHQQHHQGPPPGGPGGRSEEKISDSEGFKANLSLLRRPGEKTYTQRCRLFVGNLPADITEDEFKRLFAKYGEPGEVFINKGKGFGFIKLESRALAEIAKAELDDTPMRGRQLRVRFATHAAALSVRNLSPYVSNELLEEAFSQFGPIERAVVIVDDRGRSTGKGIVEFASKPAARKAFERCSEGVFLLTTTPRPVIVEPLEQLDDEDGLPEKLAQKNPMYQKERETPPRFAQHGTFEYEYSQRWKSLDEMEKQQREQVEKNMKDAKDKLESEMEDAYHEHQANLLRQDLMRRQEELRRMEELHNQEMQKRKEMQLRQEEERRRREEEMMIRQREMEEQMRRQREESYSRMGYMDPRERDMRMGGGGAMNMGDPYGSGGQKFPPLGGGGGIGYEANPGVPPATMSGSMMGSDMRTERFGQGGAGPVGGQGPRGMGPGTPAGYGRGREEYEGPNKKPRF
Experiment: co-IP

Substance | binding
FLAG-KIF5A ΔTail (mouse) (domain or fragment) | binds weakly
KLC1-Myc N343S (mouse) | binds
